Reference: PubChem BioAssay AID2517 (National Center for Advancing Translational Sciences (NCATS), 2010)
Values joined by “and” are separate entries in the source; they are usually repeats but may differ in a detail not shown here. Equal values may be shown once. In all, about 350,000 compounds went through this assay and about 1,200 (0.34%) were called active. The inconclusive results got no clear call from the source; some entries with a clear call stand among them for comparison. The call rests on the fitted dose curve; in most records, active means well fitted inhibition curve with a large enough effect; inconclusive means small, poorly fitted or top-dose-only effect; inactive means no such curve, though single readings can be large or run the other way. A potency beside an inconclusive call is a rough fit, not a confirmed value.
Further: nearly all actives have a fitted effect of over 55% in size.
Potency means the concentration at half of the fitted maximal effect.
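Wherever activity change, negative = inhibition is given: plate controls were vehicle for no effect and reference inhibitor for full effect.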

The chains behind the UniProt entries cited, without tags or fusion partners.
UniProt P27695, whole entry, looked up: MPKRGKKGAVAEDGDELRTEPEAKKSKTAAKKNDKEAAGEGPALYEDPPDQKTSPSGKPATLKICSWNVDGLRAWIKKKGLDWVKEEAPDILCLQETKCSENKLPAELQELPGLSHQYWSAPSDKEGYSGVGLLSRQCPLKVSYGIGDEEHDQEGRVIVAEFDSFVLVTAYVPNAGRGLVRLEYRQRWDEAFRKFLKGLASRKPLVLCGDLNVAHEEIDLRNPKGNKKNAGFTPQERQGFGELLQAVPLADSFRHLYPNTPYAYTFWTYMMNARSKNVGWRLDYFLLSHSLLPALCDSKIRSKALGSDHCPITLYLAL

Each compound was assayed against DNA repair nuclease/redox regulator APEX1 (Homo sapiens) (UniProt P27695) (assay: qHTS Assay for Inhibitors of the Human Apurinic/apyrimidinic Endonuclease 1 (APE1)). Conditions: recombinant APE1, TAMRA/BHQ-2 abasic DNA cleavage fluorescence; activity change, negative = inhibition: at 65.8 µM (top of the series).
Summary of the method: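 Compound pre-exposure to 0.75 nM APE1, 15 min at ambient temperature. Reaction initiated with 50 nM TAMRA/BHQ-2 THF substrate, read immediately in kinetic mode, 525 nm excitation, 598 nm emission.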
For `O=C(/C=C/c1ccc(S(=O)(=O)NCc2ccco2)cc1)N1CCN(c2ccccc2)CC1`, the Potency was inconclusive: 20 µM [inhibitor, single point].
With `CCCCCc1cc(=O)oc2c(C(CCN3CCCC(C)C3)c3ccc4c(c3)OCO4)c(OC)cc(OC)c12` (centres undefined) the Potency was inconclusive: 7.94 µM [inhibitor, single point].
For `CC(=O)c1cccc(NC(=O)Nc2csc3c2CCCC3)c1`, the Potency was inconclusive: 31.6 µM [inhibitor, single point].
`O=[N+]([O-])c1ccc(NC(=S)NCCc2ccc(Cl)cc2)cc1` was tested, and the Potency was inconclusive: 39.8 µM [inhibitor, single point].
In the case of `CCOC(=O)N1CCN(C(=S)Nc2ccc(C)cc2C)CC1`, the Potency is reported as inconclusive: 44.7 µM [inhibitor, single point].
With `CC(=O)c1ccc(N2C(=O)C3C(C2=O)C(C(=O)c2ccc(Cl)cc2)N2CCCC32)cc1` (centres undefined) the “activity change, negative = inhibition” value was inactive: -3.43%.
`COCc1nnc(NC(C)=O)s1` was tested, and the Potency was inconclusive: 39.8 µM [inhibitor, single point].
`CCOc1ccc(OCCC(=O)OCC(=O)NC2CC2)cc1` was tested, and the Potency was inconclusive: 21.2 µM [inhibitor, partial curve].
With `Cc1ccc(S(=O)(=O)NC(=O)NN2CC3CCCC3C2)cc1` (centres undefined) the Potency was inconclusive: 7.08 µM [inhibitor, single point].
With `CCCCNC(=O)c1cc2c(-c3ccc(Cl)cc3)nn(C)c2s1` the Potency was inconclusive: 0.891 µM [inhibitor, single point].
With `CCOc1ccc2[nH]cc(S(=O)(=O)c3ccc(Cl)cc3)c(=O)c2c1` the Potency was inconclusive: 31.6 µM [inhibitor, partial curve, poor fit].
With `O=C(Cc1ccc(-n2cccc2)cc1)N1CCc2ccccc21` the “activity change, negative = inhibition” value was inactive: 3.91%.
With `O=c1c(O)cccc2cc(O)c(O)c(O)c12` the Potency was active: 282 nM and active: 708 nM.
In the case of `O=C(O)CCCNc1cc(N2CCN(C(=O)c3ccco3)CC2)c2noc3c2c1C(=O)c1ccccc1-3`, the Potency is reported as inconclusive: 18.9 µM [inhibitor, single point].
For `O=C(O)c1ccc(B(O)O)cc1`, the Potency was inconclusive: 0.891 µM [inhibitor, full curve].
With `CCOn1c(=O)c(-c2cccs2)[n+]([O-])c2ccccc21` the Potency was inconclusive: 0.708 µM [inhibitor, full curve].
In the case of `CCCOc1ccc(-c2c(C(=O)N/N=C/c3ccc(OC)cc3)nnn2-c2nonc2N)cc1`, the Potency is reported as inconclusive: 25.1 µM [inhibitor, partial curve].
In the case of `O=C(Cn1[nH]c(=O)c2ccccc2c1=O)Nc1cccnc1`, the Potency is reported as inconclusive: 5.01 µM [inhibitor, single point].
With `Cc1cc(NC(=O)CSCc2ccc([N+](=O)[O-])cc2)no1` the “activity change, negative = inhibition” value was inactive: 0.964%.
`O=C(/C(=C/c1ccc(Cl)cc1)c1nc2ccccc2[nH]1)c1cccs1` was tested, and the Potency was inconclusive: 12.6 µM [inhibitor, partial curve, poor fit].
`CCCC(=O)Nc1ccc(C(=O)N/N=C/c2ccc([N+](=O)[O-])o2)cc1` was tested, and the Potency was inconclusive: 39.8 µM [inhibitor, single point].
For `CCc1ccc(NC(=O)CS(=O)CC(=O)Nc2ccc(F)cc2F)cc1` (centres undefined), the Potency was inconclusive: 39.8 µM [inhibitor, single point].
For `O=c1cc(-c2ccccc2)oc2cc(O)c(O)cc12`, the Potency was inconclusive: 1.12 µM [inhibitor, full curve, poor fit].
In the case of `O=[N+]([O-])c1ccc(NC(=S)N2CCc3ccccc3C2)cc1`, the Potency is reported as inconclusive: 22.4 µM [inhibitor, single point].
With `CCNc1ncc2nc(-c3ccc(Cl)cc3)c(=O)n(CCC#N)c2n1` the Potency was inconclusive: 12.6 µM [inhibitor, partial curve].
With `C/C=C\C(=O)Nc1cccc(C2=NOC3(C2)C[C@H](C(N)=O)N(C(=O)/C=C/CC)C3)c1` (some centres undefined) the “activity change, negative = inhibition” value was inactive: -3.58%.
In the case of `CN(C(=O)C(Cl)Cl)C1CC2C=CC1C2` (centres undefined), the Potency is reported as inconclusive: 2.51 µM [inhibitor, partial curve, poor fit].
With `COC(=O)[C@@]1(Cc2ccccc2)[C@H]2c3cc(C(=O)N(C)C)n(Cc4nc5ccccc5[nH]4)c3C[C@H]2CN1C(=O)c1ccccc1` the Potency was inconclusive: 0.708 µM [inhibitor, full curve, poor fit].
In the case of `N#Cc1ccc(CSc2nnc(Cc3cccs3)n2Cc2ccco2)cc1`, the Potency is reported as inconclusive: 35.5 µM [inhibitor, single point].
With `COc1ccc(NC(=O)/C(C#N)=C\c2ccc(-c3cc(C(=O)O)ccc3C)o2)cc1` the “activity change, negative = inhibition” value was inactive: -36%.
`O=C(c1ccncc1)c1ccc(NC(=O)c2cccs2)cc1` was tested, and the Potency was inconclusive: 44.7 µM [inhibitor, single point].
For `COc1cc(OC)cc(C(=O)Nc2c(F)cccc2F)c1`, the Potency was inconclusive: 7.08 µM [inhibitor, single point].
In the case of `Cc1nc(Nc2cnc(/C=C/c3cc(C(=O)Nc4cccc(C(F)(F)F)c4)ccc3C)cn2)cc(N2CCNCC2)n1`, the Potency is reported as inconclusive: 37.7 µM [inhibitor, single point].
In the case of `O=C(Nc1ccc(Cl)c(Cl)c1)N(Cc1cccnc1)Cc1ccco1`, the Potency is reported as inconclusive: 89.1 µM [inhibitor, partial curve, poor fit].
For `Cc1c(C#N)c(O)[nH]c(=O)c1N=Nc1ccc(S(N)(=O)=O)cc1`, the Potency was inconclusive: 37.7 µM [inhibitor, single point].
With `COc1ccc(C)cc1NC(=O)NNC(=O)c1cc2ccccc2cc1O` the “activity change, negative = inhibition” value was inactive: 3.84%.
For `O=C(COC(=O)c1ccc(NS(=O)(=O)c2cccs2)cc1)Nc1nc2c(F)c(F)c(F)cc2s1`, the Potency was inconclusive: 35.5 µM [inhibitor, single point].
In the case of `Cc1ccc2c(c1)c(C)c(C)n2CC(O)Cn1nc(C)cc1C` (centres undefined), the Potency is reported as inconclusive: 10 µM [inhibitor, full curve, poor fit].
With `NCCS(=O)(=O)O` the Potency was inconclusive: 7.08 µM [inhibitor, single point].
`C[C@@](N)(Cc1ccc(O)cc1)C(=O)O` was tested, and the “activity change, negative = inhibition” value was inactive: 4.69%.
In the case of `O=C(O)C(c1ccccc1)N1C(=O)/C(=C\c2ccc(-c3ccccc3Cl)o2)SC1=S` (centres undefined), the Potency is reported as inconclusive: 26.7 µM [inhibitor, single point].
In the case of `Cc1c(Cl)cnc(NC(=O)COC(=O)c2ccc(S(=O)(=O)NCc3ccco3)cc2)c1Cl`, the Potency is reported as inconclusive: 39.8 µM [inhibitor, single point].
For `COc1ccc(OC)c(N2C(=O)[C@@H]3C(c4ccccc4Cl)=NO[C@@H]3C2=O)c1`, the Potency was inconclusive: 12.6 µM [inhibitor, partial curve].
For `CCOc1ccc(C(Nc2ccc(C)cc2)P2(=O)OCCC(C)O2)cc1` (centres undefined), the Potency was inconclusive: 4.47 µM [inhibitor, single point].
With `CC(C)Oc1ccc(/C=C/C(=O)NCC2COc3ccccc3O2)cc1` (centres undefined) the Potency was inconclusive: 39.8 µM [inhibitor, single point].
With `N=C1/C(=C/c2ccc(-c3cccc(C(=O)O)c3)o2)C(=O)N=C2SC(CC(=O)N3CCOCC3)=NN12` the Potency was inconclusive: 23.8 µM [inhibitor, single point].
For `Cc1ccc(NCc2n[nH]c(=S)n2-c2ccccc2)cc1`, the Potency was inconclusive: 39.8 µM [inhibitor, partial curve, poor fit].
For `O=C(c1ccccc1-c1ccccc1)N1CCCCC1`, the Potency was inconclusive: 12.6 µM [inhibitor, partial curve].
With `Cc1ccccc1Nc1oc(-c2ccccc2)nc1-c1cccc2ccccc12` the “activity change, negative = inhibition” value was inactive: 5.09%.
For `COc1ccc(S(=O)(=O)/C(C#N)=C/Nc2ccc(NC(C)=O)cc2)cc1`, the “activity change, negative = inhibition” value was inactive: -6.22%.
`O=C(CCN1C(=O)C2C3C=CC(C3)C2C1=O)Nc1ccccc1` (centres undefined) was tested, and the Potency was inconclusive: 4.47 µM [inhibitor, single point].
`Cc1onc(C(=O)Nc2sc3c(c2C(N)=O)CCCC3)c1[N+](=O)[O-]` was tested, and the Potency was inconclusive: 0.0316 µM [inhibitor, full curve, poor fit].
In the case of `CN(C)Cc1ccccc1-c1cc(Nc2ccccc2)ncn1`, the “activity change, negative = inhibition” value is reported as inactive: -2.71%.
In the case of `CCc1ccc(NC(=O)c2noc3c2CCC3)cc1`, the Potency is reported as inconclusive: 22.4 µM [inhibitor, single point].
In the case of `COc1cccc(OCCn2cc(/C=N/NC(=O)c3ccncc3)c3ccccc32)c1`, the Potency is reported as inconclusive: 35.5 µM [inhibitor, single point].
With `CC(C)C[C@@H](CC(=O)N[C@@H](CCC(=O)O)CC(=O)O)NC(=O)[C@@H]1CCCC[C@H]1NC(=O)C[C@@H](NC(=O)C[C@H](Cc1c[nH]c2ccccc12)NC(=O)[C@@H]1CCCC[C@H]1N)C(C)C` the “activity change, negative = inhibition” value was inactive: -3.05%.
In the case of `Cn1c(=O)c2c(ncn2CC(=O)N2CCN(c3ccc(F)cc3)CC2)n(C)c1=O`, the Potency is reported as inconclusive: 20 µM [inhibitor, partial curve, poor fit].
`CCc1cc2c(=O)c(-c3nc4ccccc4n3C)coc2c(CN2CCN(C)CC2)c1O` was tested, and the Potency was inconclusive: 35.5 µM [inhibitor, single point].
With `CC1(C)Cc2c(sc3c2c(=N)n(Cc2ccco2)c(=O)n3Cc2ccccc2)CO1` the “activity change, negative = inhibition” value was inactive: -9.08%.
For `CCc1nnc2sc(-c3ccc(NC(=O)c4ccco4)cc3)nn12`, the “activity change, negative = inhibition” value was inactive: -0.605%.
With `O=C(NCCc1ccc(F)cc1)c1ccc(Cl)c(S(=O)(=O)N2CCOCC2)c1` the Potency was inconclusive: 23.8 µM [inhibitor, single point].
With `CC(=O)N[C@@H](C=O)[C@H](O)[C@H](O)[C@@H](O)CO` the “activity change, negative = inhibition” value was inactive: 18.9%.
`COc1cccc(C(=O)Nc2cccc(OCC(=O)c3ccccc3)c2)c1` was tested, and the Potency was inconclusive: 31.6 µM [inhibitor, single point].
With `O=C(Nc1ccccc1)Nc1ccccc1Br` the Potency was inconclusive: 44.7 µM [inhibitor, single point].
